# PubChem BioAssay AID1053208 | Peter MacCallum Cancer Centre | 2014
# Screen: 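Find knock-downs that sensitise mouse osteosarcoma cells to doxorubicin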 (primary screen)
# Cells: mouse osteosarcoma cells, early-passage culture from an engineered mouse model of fibroblastic bone tumour
# Reagent: siRNA pool against mouse genes, 40 nM
# Time to read-out: about 120 h (48 h before drug, then 72 h with drug)
# Challenge: doxorubicin 100 nM for 72 h, roughly 30-40% inhibitory dose
# Measurement: 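Viability read as ATP luminescence after 72 h of 100 nM doxorubicin or none, duplicate wells averaged, scaled to non-targeting siRNA, then expressed as robust z-scores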
# Direction: viability z-score with doxorubicin: higher = more viable cells under doxorubicin; viability z-score without drug: higher = more viable cells with knock-down alone
# Active means: 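Called active if knock-down leaves viability unchanged without drug (z within -2 to 2) but lowers it with doxorubicin (z at or under -2)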
# Here is a random part of about 17,000 reagents tested. Of all reagents, 788 (4.7%) were called active. 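Calls rest on z-score classes alone; an extra cut-off of viability at most 70% of control was not applied to them.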 Entries without a mark were called inactive. Further read-outs or replicates are left out here.
gene symbol,combined z-score class,viability z-score with doxorubicin,viability z-score without drug
Elf3,high cell count without drug only,0.11,2.19
Krt32,no change with or without drug,-0.9,-1.18
Arglu1,low cell count with doxorubicin only (active),-2.92,-0.84
Mtcl1,no change with or without drug,-1.01,-0.51
Prkd3,no change with or without drug,0.56,0
Arhgap45,no change with or without drug,-1.35,-0.51
Ypel3,no change with or without drug,-1.35,-0.67
Bsn,no change with or without drug,-0.45,-0.34
Plgrkt,no change with or without drug,0.45,1.35
Or4f60,no change with or without drug,1.12,-0.17
Chrna2,no change with or without drug,0,0.34
Kdm4c,no change with or without drug,-0.67,-0.17
Alk,no change with or without drug,1.46,0.84
Cfap263,high cell count without drug only,1.35,5.23
Tmem39b,no change with or without drug,0.67,0.34

Reagents listed so far marked active (1):
gene symbol,combined z-score class,viability z-score with doxorubicin,viability z-score without drug
Arglu1,low cell count with doxorubicin only (active),-2.92,-0.84

More results:
gene symbol,combined z-score class,viability z-score with doxorubicin,viability z-score without drug
Dnajc16,no change with or without drug,-0.45,0.34
Tsc22d4,no change with or without drug,0.34,-0.67
Olfr242,no change with or without drug,-0.11,-0.17
Dock11,no change with or without drug,-1.57,-0.17
Ppa2,no change with or without drug,1.12,-0.17
Tnni1,no change with or without drug,0,-0.17
Cbln2,no change with or without drug,-0.34,-0.84
Dhx58,no change with or without drug,0.22,1.01
Cacna1a,no change with or without drug,-1.57,-0.51
Pgap6,high cell count without drug only,1.57,2.36
Disp2,no change with or without drug,-0.22,-0.17
Pmaip1,no change with or without drug,0,0.17
Rtcb,no change with or without drug,-0.22,0.34
Rtl3,no change with or without drug,0,-1.18
Parn,no change with or without drug,0.45,-0.51
Exosc4,no change with or without drug,-0.45,0.34
Lrit1,low cell count without drug only,-1.57,-2.19
Tnnc1,no change with or without drug,-1.57,-0.84
Usp13,no change with or without drug,-0.9,-0.51
